Experimental data published in PubChem BioAssay AID2551 (National Center for Advancing Translational Sciences (NCATS), 2010).
Screen size: about 310,000 compounds; about 17,000 (5.5%) were called active. Inconclusive results, whose numbers are uncertain, are shown with a selection of clear calls. The call rests on the fitted dose curve; in most records, active means well fitted inhibition curve with a large enough effect; inconclusive means small, poorly fitted or top-dose-only effect, or effect the other way; inactive means no such curve, though single readings can be large or run the other way. Potencies beside an inconclusive call are fits to weak or partial responses and may not hold up.

Protein sequences, listed by entry. Tags and fused reporters are not part of them. Lines headed by an entry give the natural chain unless they say otherwise; changes in a name come on top.
UniProt P51450: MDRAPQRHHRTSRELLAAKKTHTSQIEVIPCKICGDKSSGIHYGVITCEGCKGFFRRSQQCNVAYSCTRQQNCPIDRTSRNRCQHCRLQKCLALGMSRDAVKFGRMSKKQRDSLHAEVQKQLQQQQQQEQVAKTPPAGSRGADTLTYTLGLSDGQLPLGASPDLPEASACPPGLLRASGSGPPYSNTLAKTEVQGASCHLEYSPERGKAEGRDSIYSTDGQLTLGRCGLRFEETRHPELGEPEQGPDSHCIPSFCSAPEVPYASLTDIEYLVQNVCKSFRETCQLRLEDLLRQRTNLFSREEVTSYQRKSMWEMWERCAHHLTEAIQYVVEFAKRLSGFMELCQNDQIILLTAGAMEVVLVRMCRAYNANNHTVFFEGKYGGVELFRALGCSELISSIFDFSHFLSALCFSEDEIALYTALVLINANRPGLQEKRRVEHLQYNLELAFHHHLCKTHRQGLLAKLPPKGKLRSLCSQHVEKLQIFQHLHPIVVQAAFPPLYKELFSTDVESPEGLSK

What follows are compounds tested against Nuclear receptor ROR-gamma (Mus musculus) (UniProt P51450) (assay: qHTS for inhibitors of ROR gamma transcriptional activity). Conditions: Drosophila S2 Gal4-RORgamma UAS-luciferase reporter, 20 h; activity change, negative = inhibition: at 53.6 µM (top of the series).
In short: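 Luminescence from a UAS-regulated Photinus luciferase reporter in stably transfected Drosophila Schneider cells is measured; decreased signal marks ROR gamma inhibition. Fusion expression is induced by 700 uM copper sulfate for 20 hr.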
Further: nearly all actives have a fitted effect of over 60% in size.
On the % scale 0 is the no-effect control and ±100 the full control effect; potency means the concentration at half of the fitted maximal effect.

Row | Compound | Potency | activity change, negative = inhibition
1 | CCOc1ccc(/C(=N\O)C(C)NO)cc1 (stereo not drawn) | inconclusive: 0.708 µM [inhibitor, partial curve, poor fit] | 
2 | C/C(=N\Nc1ccccc1Cl)c1ccc(-n2ccnc2)cc1 | active: 8.91 µM | 
3 | CN(c1ccccc1)c1nc(N2CCCC2)nc(-n2ccnc2)n1 | active: 4.47 µM | 
4 | O=C(Nc1nccs1)C(Br)C(Br)c1ccccc1 (stereo not drawn) | inconclusive: 22.4 µM [inhibitor, single point] | 
5 | Cc1ccc2oc(/N=C(\N)NC(=O)C3CC3)nc2c1 | active: 7.08 µM | 
6 | COc1ccccc1/C=C1\SC(=S)N(CCC(=O)N2CCCCC2CCO)C1=O (stereo not drawn) | inconclusive: 11.2 µM [inhibitor, partial curve, poor fit] | 
7 | CC(=O)c1ccc(OCc2ccc(Oc3c(Cl)cccc3[N+](=O)[O-])cc2)cc1 | inconclusive: 35.5 µM [activator, single point] | 
8 | O=S(=O)(NC1CCCC1)c1ccc(S(=O)(=O)N2CCCN(Cc3ccccc3)C2)cc1 |  | inactive: -16%
9 | Cc1ccc(-c2nc(C(=O)NCCCN(C)C)cc3c2[nH]c2ccccc23)cc1 | inconclusive: 35.5 µM [inhibitor, single point] | 
10 | O=C(Nc1ncnc2c1ncn2C1OC(COC(=O)c2ccccc2)C(F)C1O)c1ccccc1 (stereo not drawn) | active: 10 µM | 
11 | COc1ccc(CCNC(=O)C2CCCN(S(=O)(=O)c3ccccc3)C2)cc1 (stereo not drawn) |  | inactive: 19.9%
12 | O=C(/C=C/c1ccccc1Cl)c1ccc(O)cc1 | active: 10 µM | 
13 | CC(C)C(=O)NNC(=O)CN1CCN(c2nc(-c3ccccc3)cs2)CC1 |  | inactive: 3.28%
14 | CCOC(=O)c1[nH]c2ccc(F)cc2c1NC(=O)CN1CCN(C/C=C/c2ccccc2)CC1 | inconclusive: 35.5 µM [inhibitor, single point] | 
15 | COc1ccc2c(/C=N/Nc3ccc(C(=O)O)cc3)c[nH]c2c1 | inconclusive: 3.16 µM [inhibitor, full curve] | 
16 | COc1ccccc1NC(=O)c1c(Nc2ccccc2F)sc(C(=O)Nc2cccc(Cl)c2)c1N | inconclusive: 31.6 µM [inhibitor, single point] | 
17 | CCc1ccc(N2CCN(C(=O)N3CCOCC3)CC2)cc1 |  | inactive: 19.3%
18 | O=C1CC(c2nc3ccccc3[nH]2)CN1c1cccc(C(F)(F)F)c1 (stereo not drawn) | inconclusive: 25.1 µM [activator, single point] | 
19 | CN(c1ccccc1)P(=O)(N(C)c1ccccc1)N(C)c1ccccc1 | inconclusive: 25.1 µM [inhibitor, single point] | 
20 | Cc1cc(C(=O)COC(=O)c2ccc[nH]c2=O)c(C)n1CCc1ccc(F)cc1 |  | inactive: -12%
21 | COc1cccc(NC(=O)NC2CCCCC2C)c1 (stereo not drawn) |  | inactive: 1.37%
22 | O=C(COC(=O)c1ccc2c(c1)C(=O)N(c1cccc3ncccc13)C2=O)c1ccc(Cl)cc1 | inconclusive: 35.5 µM [inhibitor, single point] | 
23 | COc1ccc(S(=O)(=O)Nc2ccccn2)cc1 |  | inactive: 18.4%
24 | O=C(O)c1ccc(C2CCCCC2)cn1 | active: 7.94 µM | 
25 | CC(C)Oc1cccc(C(=O)NC(=S)Nc2cccc(C(F)(F)F)c2)c1 | active: 6.31 µM | 

Looked up by structure from the entries so far, three records:
Row | Compound | Potency | activity change, negative = inhibition
5 | Cc1ccc2oc(/N=C(\N)NC(=O)C3CC3)nc2c1 | active: 7.08 µM | 
11 | COc1ccc(CCNC(=O)C2CCCN(S(=O)(=O)c3ccccc3)C2)cc1 (stereo not drawn) |  | inactive: 19.9%
19 | CN(c1ccccc1)P(=O)(N(C)c1ccccc1)N(C)c1ccccc1 | inconclusive: 25.1 µM [inhibitor, single point] | 

Next part

Row | Compound | Potency | activity change, negative = inhibition
26 | CCCCOc1cccc(/C=C(\C#N)C(=O)NC2CC2)c1 | inconclusive: 20 µM [inhibitor, single point] | 
27 | COc1ccc(-c2cc(=O)oc(-c3cccc(C)c3)n2)cc1 |  | inactive: 1.23%
28 | Clc1ccc(C(c2ccccc2)N2CCN(c3ccccn3)CC2)cc1 (stereo not drawn) |  | inactive: -21.6%
29 | O=C(CC1N=C(Cc2ccccc2)NNC1=O)N/N=C/c1ccc([N+](=O)[O-])cc1 (stereo not drawn) |  | inactive: -7.56%
30 | Cc1cccc(Nc2nc(N)c([N+](=O)[O-])c(N3CCC(C)CC3)n2)c1 | inconclusive: 35.5 µM [activator, single point] | 
31 | CCN(CC)C(=O)c1ccc2c(=O)n(Cc3cccc(Br)c3)c(=S)[nH]c2c1 | active: 7.08 µM | 
32 | CCCCOc1ccc(/C=N/NC(=O)c2csc(C)c2C)cc1 | active: 11.2 µM | 
33 | Cn1cc(CN2CCC(C(=O)Nc3cccc(-c4cscn4)c3)CC2)cn1 |  | inactive: -41.5%
34 | N#C/C(=C\c1c(N(Cc2ccccc2)Cc2ccccc2)nc2ccccn2c1=O)C(N)=O | inconclusive: 35.5 µM [inhibitor, partial curve, poor fit] | 
35 | CCCC1CCC(c2ccc(C(=O)NN)cc2)CC1 (stereo not drawn) | inconclusive: 15.8 µM [inhibitor, single point] | 
36 | Cn1nc(-c2ccccc2)c(C(O)c2ccccc2C(F)(F)F)c1Cl (stereo not drawn) | inconclusive: 6.31 µM [inhibitor, single point] | 
37 | NS(=O)(=O)c1ccc(N=Nc2c(=O)[nH]n3c(=O)c4c([nH]c23)CCCC4)cc1 |  | inactive: -18.2%
38 | COc1ccc(/C=N/OC/C(O)=C(\C#N)c2nc3ccccc3[nH]2)cc1 | active: 11.2 µM | 
39 | O=C(NC1CC1)C1=C[C@@H](c2ccc3c(c2)OCO3)C[C@@H](OCc2ccc(CO)cc2)O1 | inconclusive: 35.5 µM [activator, single point] | 
40 | C/C(=N\NC(=O)COc1ccc(C(C)(C)C)cc1)c1ccc(OC(F)F)cc1 | inconclusive: 3.16 µM [activator, single point] | 
41 | CCOC(=O)Cc1csc(NC(=O)Nc2ccc(Cl)cc2)n1 |  | inactive: 35.9%
42 | Cc1ccc2[nH]c(=O)c(C(c3nnnn3C3CCCC3)N3CCCc4ccccc43)cc2c1 (stereo not drawn) | inconclusive: 7.94 µM [activator, partial curve] | 
43 | CCOC(=O)c1sc(-c2cccc([N+](=O)[O-])c2)cc1N | inconclusive: 0.794 µM [activator, full curve, poor fit] | 
44 | Cc1cccc(C(=O)N[C@H](C(=O)OCC(=O)NC2CCS(=O)(=O)C2)C(C)C)c1 (stereo partly drawn) |  | inactive: 35.9%
45 | CC(=O)c1ccc(NC(=O)c2cccc(NC(=O)c3ccccc3)c2)cc1 |  | inactive: 37.2% [at 1.91 µM]
46 | C=CCn1c(-c2cccn(Cc3ccc(Cl)cc3Cl)c2=O)n[nH]c1=S | active: 2.51 µM | 
47 | O=C(c1ccccc1)c1cc([N+](=O)[O-])ccc1N1CCCC1 |  | inactive: 29.6%
48 | CC(C)[C@@H]1C=C(C(=O)O)O[C@H](OCCCCO)C1 | inconclusive: 35.5 µM [inhibitor, single point] | 
49 | CSc1ccc(C(=O)N2CCC(CCC(=O)NC3CC3)CC2)cc1 |  | inactive: 16.7%
50 | COCCNC(=O)CN(C(=O)CCC(=O)Nc1ccccn1)c1ccc(C)c(C)c1 |  | inactive: 12.1% [at 1.91 µM]

Row | Compound | Potency | activity change, negative = inhibition
51 | CCn1cc([N+](=O)[O-])c(C(=O)N2N=C(c3ccc(Cl)c(Cl)c3)CC2c2ccccc2O)n1 (stereo not drawn) | inconclusive: 35.5 µM [inhibitor, single point] | 
52 | O=C(NCCSc1ccccc1)c1ccc(Br)cc1 | inconclusive: 35.5 µM [inhibitor, single point] | 
53 | Cc1ccc(S(=O)(=O)c2cccc(S(=O)(=O)N3CCCC3)c2)cc1S(=O)(=O)N1CCCC1 | inconclusive: 17.8 µM [activator, single point] | 
54 | OC(CNCC1CCCO1)Cn1c2ccc(Br)cc2c2cc(Br)ccc21 (stereo not drawn) | inconclusive: 20 µM [inhibitor, single point] | 
55 | COC(=O)[C@H](CC(C)C)NC(=O)NCc1ccc(Cl)cc1 |  | inactive: -1.22%
56 | c1ccc(CCc2ccccc2-c2nc(-c3ccccn3)no2)cc1 | inconclusive: 15.8 µM [inhibitor, single point] | 
57 | CCOC(=O)c1oc2cc(C)cc(C)c2c1C | inconclusive: 11.2 µM [activator, partial curve, poor fit] | 
58 | Cc1ccc(Br)cc1S(=O)(=O)Nc1cccnc1 | inconclusive: 15.8 µM [inhibitor, partial curve] | 
59 | O=C(Nc1ccc(S(=O)(=O)NCc2ccco2)cc1)c1ccc(F)cc1 | inconclusive: 11.2 µM [activator, partial curve] | 
60 | CCO[C@@H]1OC(C(=O)NCc2ccccc2)=C[C@H](C2CCCCC2)[C@H]1CCCO |  | inactive: -13.5%
61 | O=C(/C=C/c1ccccc1Cl)NCc1ccccc1 |  | inactive: -5.18%
62 | CC(C)c1ccc(NC(=O)[C@@H]2CCC(=O)N2C2OC(=O)c3ccccc32)cc1 (stereo partly drawn) | inconclusive: 2.82 µM [activator, partial curve] | 
63 | Cc1cc(Nc2ccccc2)nn1C(=O)c1ccc(Cl)cc1 | inconclusive: 12.6 µM [activator, partial curve] | 
64 | Brc1ccccc1OCCOc1cccc2cccnc12 | inconclusive: 25.1 µM [inhibitor, single point] | 
65 | COc1ccccc1NC(=O)CSc1nnc(C)n1CC1CCCO1 (stereo not drawn) | inconclusive: 0.0045 µM [inhibitor, full curve, poor fit] | 
66 | COc1ccccc1CN(Cc1ccco1)S(=O)(=O)c1ccc(-n2cnnn2)c(OC)c1 | inconclusive: 0.199 µM [inhibitor, partial curve, poor fit] | 
67 | Cc1ccc(-n2c(Cn3ncc4ccccc4c3=O)n[nH]c2=S)cc1 | inconclusive: 14.1 µM [inhibitor, partial curve, poor fit] | 
68 | O=C(CSc1nnc2ccccn12)Nc1cccc(-c2nc3ccccc3s2)c1 |  | inactive: -0.264%
69 | Oc1c(Cl)cc(Cl)cc1CNc1ccccn1 | inconclusive: 35.5 µM [activator, single point] | 
70 | O=C(/C=C\c1ccco1)NC(=S)Nc1ccccc1O | active: 22.4 µM | 
71 | O=C(NCc1ccc(N2CCCC2=O)cc1)c1cc(COc2c(F)cccc2F)on1 | inconclusive: 14.1 µM [activator, single point] | 
72 | CCOC(=O)c1c(C)oc2c1c(C(c1cccnc1)N1CCOCC1)c(O)c1ccccc12 (stereo not drawn) | inconclusive: 17.8 µM [inhibitor, single point] | 
73 | COc1cc(/C=C/c2ccc3cccc([N+](=O)[O-])c3n2)ccc1OCC(=O)O |  | inactive: 8.56%
